Measured values: patent publication US20220119446A1, “BIOMARKERS AND TREATMENT OF NEURONAL INJURY AND NEURODEGENERATION” (Board of Supervisons of Louisiana State University and …, priority 2018, published 2022)
“Also recorded” adds a separate entry of the source. For at least one compound, name, drawing or mass did not settle the structure.

Assays:
Wnt5a [1] = experiment: Transient MCAo: Wnt5a protein in plasma; assay type: in vivo; settings: rat MCAo, days 1, 3 and 7 post-surgery
Experimental: In various exemplary embodiments, docosahexaenoic acid (DHA; 5 mg/kg, Cayman, Ann Arbor, Mich., USA), Box5 (1 mg/kg, Millipore-Sigma, Burlington, Mass.) or vehicle (0.9% saline) is administered intravenously into the femoral vein at a constant rate over 3 min using an infusion pump at 3 h after onset of MCAo. In embodiments, for western-blot study, rats are sacrificed on days 1, 3, or 7; for real-time PCR study, rats are sacrificed on days 1, 2, or 3.
A, Timeline of MCAo. DHA, Box5 or saline were administered at 1 h after 2 h of MCAo and rats were sacrificed on days 1, 2, 3 or 7. B, Effect of DHA on neurological recovery. Total score (normal score=0, maximal deficit=12), tactile placing (dorsal, lateral, proprioceptive reactions; normal score=0, maximal deficit=2) after MCAo. DHA or saline was administered at 1 h after 2 h of MCAo and rats sampled on days 1, 2, 3 or 7. […] C, Total neurological score at days 1, 3 and 7; D, MRI quantification at day 7 of the lesion volume depicting total, core and penumbra and; E, representative coronal sections showing T2 weighted image (T2WI), the defined core and penumbra region (red and blue, respectively) in the second column; and a 3D reconstruction of the lesion. […] J, Quantification of Wnt5a and NF-κB linked gene expression in MCAo. […] The mRNA were measured using SYBR green RT-PCR. […]

[2] = system: IL6, TNFα, CCL1, MCP1, and IL1β; experiment: Transient MCAo: NF-κB linked gene expression by real-time PCR; assay type: in vivo; settings: rat MCAo, DHA vs saline, 3 days, ipsilateral
ARPE-19 cells and hpRPE = experiment: Apoptosis by Hoechst staining in RPE cells under UOS; assay type: cell-based, human
Experimental: ARPE-19 cells, can be plated and grown in DMEM/F-12 containing 10% FBS and 1× penicillin/streptomycin at 37° C., 5% CO2, 99% relative humidity for 24 h. […] 15-LOX-1 deficient cells can be maintained in the same medium as ARPE-19 with the addition of 500 μg/mL Geneticin (Life Technologies Corporation, Carlsbad, Calif.). Transfection can be performed in all cases using Lipofectamine 2000 (Life Technologies Corporation, Carlsbad, Calif.) following the manufacturer's recommendations. […] Experiments with transfection efficiency that yielded less than 80% can be discarded. For siRNA, we used 6 μl of Lipofectamine 2000 per 50 pmol of siRNA per mL of incubation medium, and, for plasmids, we used 6 μl of Lipofectamine 2000 per 2 μg of plasmid per mL of incubation medium. Cells can be incubated for 5 hours at 37° C., 5% CO2 and 99% relative humidity. […] When siRNA/plasmid co-transfection is required, siRNA and plasmid-carrying transfection mixes can be prepared separately and added one after the other in the same well. […]
Immunostaining can be performed in 8-well slide chambers and the Hoechst staining in 24-well plates. […] The ratio of hyperpyknotic cells over the total can be calculated for nine randomly chosen fields per sample obtained from three independent wells per experiment. […]

Wnt5a [3] = experiment: Transient MCAo: Wnt5a protein in brain tissue by western blot; assay type: in vivo; settings: rat MCAo, 1 day, DHA vs saline
FZD5 = experiment: SYBR green real-time PCR of Wnt5a receptors/co-receptors in RPE cells under UOS; assay type: cell-based, human; settings: hpRPE exposed to UOS, UOS gives 2-fold rise
Wnt5a [4] = experiment: Transient MCAo: Wnt5a mRNA in rat cortex by real-time PCR; assay type: in vivo; settings: DHA vs saline, 1 and 3 days post-surgery
rats subjected to MCAo = experiment: Transient middle cerebral artery occlusion (MCAo): behavioral tests, neurological score; assay type: in vivo, rat
Text: In certain embodiments, Male Sprague-Dawley rats (290-320 g; Charles River Lab, Wilmington, Mass., USA) are used for in vivo studies. For all surgical procedures, animals can be fasted and anesthesia can be induced with 3.5% isoflurane and 70% nitrous oxide and 30% oxygen. Animals can be orotracheally intubated; given atropine for secretions, pancuronium for immobilization; ventilated mechanically on a humidified mixture of 70% nitrous oxide, 1.0-1.5% isoflurane and a balance of oxygen. A femoral artery and vein can be catheterized for continuous blood pressure monitoring and periodic blood sampling for arterial gases and pH. PCO2 can be maintained at 35-40 mm Hg and P02 at 105-120 mm Hg by ventilator adjustments. Rectal temperature can be measured with a thermistor and maintained with a heating lamp at 37.0-37.5° C. Cranial (temporalis muscle) temperature also can be monitored and regulated with a separate warming lamp at 36.2-36.7° C.
The right MCA can be occluded for 2 h by intraluminal filament, as described previously (Belayev et al. 2011). […]
In certain embodiments, behavioral tests are conducted before, during MCAo (at 60 min), and then at 24 h, 48 h, 72 h, or 7 days after MCAo by an investigator blinded to the experimental groups. […] In embodiments, the severity of stroke injury is assessed by behavioral examination of each rat at 60 min after onset of MCAo. […]

Which “plasma (blood) Wnt5a protein” value (Wnt5a [1]) does the source give for `CC/C=C\C/C=C\C/C=C\C/C=C\C/C=C\C/C=C\CCC(=O)O` [DHA, docosahexaenoic acid] here?
The value was “brought the levels down; also recorded: brought down bloodstream Wnt5a protein”.

And the “expression of NF-κB-activated inflammation mediators and Wnt5a-linked genes” value [2]?
The value was “follows the same trend as Wnt5a; also recorded: counteracted”.

What about the “UOS-dependent NFkB activation and apoptosis (FIG. 18B legend)” value (ARPE-19 cells and hpRPE) of the same molecule?
Its value is “counteracted these effects”.

What about the “Wnt5a protein abundance in hemispheres A1 and A2” value (Wnt5a [3]) of the same molecule?
Its value is “low”.

What about the “FZD5 mRNA” value (FZD5) of the same molecule?
The value was “did not affect the expression of FZD5”.

What about the “Wnt5a mRNA in ipsilateral hemisphere” value (Wnt5a [4]) of the same molecule?
The value was “blocked this surge”.

What about the “neuronal damage / neuroprotection in stroke model (tissue and behavioral)” value (rats subjected to MCAo; rat MCAo, summary statements) of the same molecule?
The value was “significantly decreased; also recorded: remarkable neuroprotection; also recorded: protection at the neurological/behavioral level as well as by reduction of stroke damage”.

What about the “neurological score (total, tactile and proprioceptive placing)” value (rats subjected to MCAo; rat, 2 h MCAo, IV 1 h later, DHA 5 mg/kg or Box5 (1 mg/kg; 400 μg), days 1, 2, 3, 7, versus saline) of the same molecule?
The value was “improved neurologic scores; also recorded: sustained improvement”.
